Laboratory results: PubChem BioAssay AID652259 (Drosophila RNAi Screening Center, 2013)

- Aim: 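Identify new Wingless signalling regulators in fly cells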 (primary screen)
- System: Drosophila clone 8 imaginal disc epithelial cells
- Reagents: long dsRNA against Drosophila genes
- Challenge: pathway stimulated by co-transfected Wingless expression plasmid
- Detection: 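Dual luciferase reads per well after Wingless plasmid stimulation: reporter firefly light and Renilla control light; activity is firefly divided by Renilla, a ratio not deposited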
- Reading the numbers: firefly reporter light: higher = more Wg reporter light, before normalisation; Renilla control light: higher = more transfected or surviving cells
- Call rule: 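a knock-down is a candidate when at least two out of four statistical tests show it departing from its plate mean; one test alone signals a weak candidate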
- Meaning of the calls: active = candidate regulator (raises or lowers reporter); inactive = not a candidate
The screen tested about 22,000 reagents; this is an unselected part of those that have a named target and a result. Of all reagents, 233 (1.1%) are marked active. 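Light values are raw, unnormalised plate reads; the ratio scores behind the reporter calls were not deposited.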 Unmarked entries are inactive. The record does not give: the amount of reagent, the time to read-out, the dose of the treatment.

Depletion of CG15449 gave: firefly reporter light, replicate 1 = 28147; Renilla control light, replicate 1 = 12608.
With knock-down of CG12239 the results were firefly reporter light, replicate 1 = 3099; firefly reporter light, replicate 2 = 7659; Renilla control light, replicate 1 = 1302; Renilla control light, replicate 2 = 2393.
With knock-down of CG12159, the screen gave firefly reporter light, replicate 1 = 2377; firefly reporter light, replicate 2 = 6832; Renilla control light, replicate 1 = 624; Renilla control light, replicate 2 = 2275.
CG31446 showed firefly reporter light, replicate 1 = 2632; Renilla control light, replicate 1 = 1176.
For CG14053, the entry reads firefly reporter light, replicate 1 = 14473; Renilla control light, replicate 1 = 10483.
With knock-down of CG34244, the screen gave firefly reporter light, replicate 1 = 2803; Renilla control light, replicate 1 = 1066.
CG2926 gave firefly reporter light, replicate 1 = 3367; Renilla control light, replicate 1 = 1524.
Depletion of pch2 resulted in: firefly reporter light, replicate 1 = 14816; Renilla control light, replicate 1 = 3560.
After knock-down of CG10694, the record shows firefly reporter light, replicate 1 = 19127; Renilla control light, replicate 1 = 13508.
tko scored firefly reporter light, replicate 1 = 14246; Renilla control light, replicate 1 = 12528.
CG14096 showed firefly reporter light, replicate 1 = 16756; firefly reporter light, replicate 2 = 7.71e5; Renilla control light, replicate 1 = 6781; Renilla control light, replicate 2 = 3.19e5.
Against IntS2, the values are firefly reporter light, replicate 1 = 4141; firefly reporter light, replicate 2 = 10197; Renilla control light, replicate 1 = 1008; Renilla control light, replicate 2 = 4032.

Part of the list above, reduced to “firefly reporter light, replicate 1”.
tko = 14246
CG14096 = 16756
